In the supplement of paper PMC5355238:
Counter-ions that a name gives are not always drawn. ± gives the standard deviation of the averaged measurements. Some of the results follow. Single values are uncertain, as repeats are few or missing.

Test system: Reh
Experiment: S-phase gammaH2AX median, Z-score vs plate median (drug alone); higher = more S-phase DNA damage
Conditions: MK1775 concentration 0 nM; 10 µM; 4 h

SMILES | S-phase gammaH2AX median (Z-score)
O=C(O)[C@H]1C[C@H](C(=O)O)N1 (relative stereo) [trans-Azetidine-2,4-dicarboxylic acid] | 0.0971
O=P(O)(O)C(Cl)(Cl)P(=O)(O)O [Clodronic acid] | -0.0441
C[C@@H](NC(=O)/C(C#N)=C/c1ccc(O)c(O)c1)c1ccccc1 [Tyrphostin AG 527] | 0.1
N=C(N)NCCC[C@H](N)C(=O)O [L-Arginine] | -0.0932
Cc1nc2n(c(=O)c1CCN1CCC(c3noc4cc(F)ccc34)CC1)CCCC2 [Risperidone] | -0.254
CNCCC(Oc1ccc(C(F)(F)F)cc1)c1ccccc1 (stereo not given) [Fluoxetine hydrochloride] | -0.167
C#CCN1C(C)=C(C(=O)OC)C(c2cccc([N+](=O)[O-])c2)C(C(=O)OCC)=C1C (stereo not given) | 0.0828
CCCS(=O)(=O)Nc1ccc(F)c(C(=O)c2c[nH]c3ncc(-c4ccc(Cl)cc4)cc23)c1F [Vemurafenib (PLX4032)] | -0.0159
CCCCNC(=O)NS(=O)(=O)c1ccc(C)cc1 [Tolbutamide] | -0.2
C[N+](C)([O-])CCNc1ccc(NCC[N+](C)(C)[O-])c2c1C(=O)c1c(O)ccc(O)c1C2=O [Banoxantrone dihydrochloride] | 1.87
CCCCCCCCCCC/C=C\C(C)(C)/C=C\CCCC(=O)O [7,7-Dimethyl-(5Z,8Z)-eicosadienoic acid] | 0.0283
COc1cc(Nc2ncc(F)c(Nc3ccc4c(n3)N(COP(=O)(O)O)C(=O)C(C)(C)O4)n2)cc(OC)c1OC | -0.0653
Cc1nnc(C(C)C)n1C1C[C@H]2CC[C@@H](C1)N2CC[C@H](NC(=O)C1CCC(F)(F)CC1)c1ccccc1 (stereo in doubt) [Maraviroc] | -0.0437
CSc1nc(N)c2ncn([C@@H]3O[C@H](COP(=O)(O)OP(=O)(O)OP(=O)(O)O)[C@H](O)C3O)c2n1 (stereo not given in full) [2-Methylthioadenosine triphosphate tetrasodium] | -0.0932
CC(=O)C(C)=O [2,3-Butanedione] | -0.11
Cn1cc(-c2ccc3nnc(C(F)(F)c4ccc5ncccc5c4)n3n2)cn1 | 0.154
CN1[C@@H](CC(=O)c2ccccc2)CCC[C@H]1C[C@H](O)c1ccccc1 [alpha-Lobeline hydrochloride] | -0.189
CCC(CC)CC1(C(=O)Nc2ccccc2SC(=O)C(C)C)CCCCC1 | 0.198
C[C@]12CC[C@@H]3c4ccc(O)cc4CC[C@H]3[C@@H]1CCC2=O [Estrone] | 0.0252 ± 0.071
CC(=O)OCC1=C(C(=O)O)N2C(=O)[C@@H](NC(=O)CSc3ccncc3)[C@H]2SC1 [Cephapirin sodium] | 0.0388
CCCCCCCCc1ccc(CCC(N)(CO)CO)cc1 [Fingolimod (FTY720)] | -0.195
CCCCCCCC/C=C\CCCCCCCC(=O)NCCc1ccc(O)c(O)c1 [N-Oleoyldopamine] | 10.9
CNCCC(Oc1ccccc1OC)c1ccccc1 (stereo not given) [Nisoxetine hydrochloride] | 0.206
CC1CNCCN1S(=O)(=O)c1cccc2cnccc12 (stereo not given) [H-7 dihydrochloride] | -0.101
CC1CNCCN1S(=O)(=O)c1cccc2cnccc12 (stereo not given) | -0.0346
O=NN(CCCl)C(=O)NC1CCCCC1 [Lomustine (CeeNU)] | 0.213
CC1CN(S(=O)(=O)c2cccc3cnccc23)CCN1 (stereo not given) | 0.126

SMILES | S-phase gammaH2AX median (Z-score)
CCOC(=O)C1=C[C@]2(CC)CCCN3CCc4c(n1c1ccccc41)[C@@H]32 [Vinpocetine (Cavinton)] | -0.0104
CCOC(=O)C1=C[C@]2(CC)CCCN3CCc4c(n1c1ccccc41)[C@@H]32 [Vinpocetine] | -0.0133
COc1ccc(CNC(=O)Nc2ncc([N+](=O)[O-])s2)cc1 | -0.0151
O=C1N(c2ccccc2)c2ccccc2C1(Cc1ccncc1)Cc1ccncc1 [Linopirdine] | -0.173
CCCn1c(=O)c2[nH]c(-c3ccc(S(=O)(=O)O)cc3)nc2n(CCC)c1=O [1,3-Dipropyl-8-p-sulfophenylxanthine] | -0.0777
Cc1ccccc1N1C(=O)c2cc(S(N)(=O)=O)c(Cl)cc2NC1C (stereo not given) [Metolazone] | -0.00473
COc1nc(-c2ccc3c(c2)OCO3)n(-c2ccc(NC(=O)CSc3ccccc3)cc2)n1 [SecinH3] | 0.00193
Nc1nc(SCc2ccc([N+](=O)[O-])cc2)c2ncn([C@@H]3O[C@H](CO)[C@H](O)C3O)c2n1 (stereo partly drawn) [S-(4-Nitrobenzyl)-6-thioguanosine] | -0.0563
Nc1cccc2c1CN(C1CCC(=O)NC1=O)C2=O (stereo not given) [Lenalidomide] | 0.123
NOCC(=O)O [O-(Carboxymethyl)hydroxylamine hemihydrochloride] | 0.035
CC1=C(CC(=O)O)c2cc(F)ccc2/C1=C\c1ccc([S+](C)[O-])cc1 (stereo not given) [Sulindac] | 0.207
C=CC(=O)N1CCC[C@@H](n2nc(-c3ccc(Oc4ccccc4)cc3)c3c(N)ncnc32)C1 | -0.135
CCc1cccc2c3c([nH]c12)C(CC)(CC(=O)O)OCC3 (stereo not given) [Etodolac] | -0.0661
C[C@@H]1CN(CC(=O)Nc2ccc3c(c2)Cc2cccc(-c4cc(=O)cc(N5CCOCC5)o4)c2S3)C[C@H](C)O1 | -0.0862
CN(C)CCCO[C@@H]1[C@H]2OC(C)(C)O[C@H]2O[C@@H]1[C@H](O)CO [Amiprilose hydrochloride] | 0.00194
Cc1nc(N)sc1-c1ccnc(Nc2ccc(N3CCOCC3)cc2)n1 | -0.0607
CN(C)[C@@H]1C(O)=C(C(N)=O)C(=O)[C@@]2(O)C(O)=C3C(=O)c4c(O)ccc(Cl)c4[C@@H](O)[C@H]3C[C@@H]12 [Demeclocycline hydrochloride] | 0.0126
O=C(O)/C(=C\c1c(C(=O)O)[nH]c2cc(Cl)cc(Cl)c12)c1ccccc1 | -0.0355
N[C@@H](C(=O)N[C@@H]1C(=O)N2C(C(=O)O)=C(Cl)CS[C@H]12)c1ccccc1 [Cefaclor] | 0.109
NCCS(=O)O [Hypotaurine] | 0.148
O=C(O)c1cc(O)c2ccc(Cl)cc2n1 [7-Chlorokynurenic acid] | -0.00388
CC(C)NC[C@H](O)c1ccc(O)c(O)c1 [R(-)-Isoproterenol (+)-bitartrate] | 0.107
CC[C@@H]1/C=C(\C)C[C@H](C)C[C@H](OC)[C@H]2O[C@@](O)(C(=O)C(=O)N3CCCC[C@H]3C(=O)O[C@H](/C(C)=C/[C@@H]3CC[C@H](Cl)[C@H](OC)C3)[C@H](C)[C@@H](O)CC1=O)[C@H](C)C[C@@H]2OC [Pimecrolimus] | -0.0746
Brc1c(NC2=NCCN2)ccc2nccnc12 | 0.374
CN(C)CCOC(=O)COc1ccc(Cl)cc1 [Centrophenoxine hydrochloride] | 0.0738
N=C(N)N/N=C/c1c(Cl)cccc1Cl [Guanabenz acetate] | 0
OC(CCN1CCCCC1)(c1ccccc1)C1CCCCC1 (stereo not given) [Trihexyphenidyl hydrochloride] | 0.394

Some values from the list.
S-phase gammaH2AX median (Z-score), CN(C)CCOC(=O)COc1ccc(Cl)cc1 [Centrophenoxine hydrochloride] reads 0.0738
S-phase gammaH2AX median (Z-score), Nc1nc(SCc2ccc([N+](=O)[O-])cc2)c2ncn([C@@H]3O[C@H](CO)[C@H](O)C3O)c2n1 (stereo partly drawn) [S-(4-Nitrobenzyl)-6-thioguanosine] reads -0.0563
S-phase gammaH2AX median (Z-score), CC[C@@H]1/C=C(\C)C[C@H](C)C[C@H](OC)[C@H]2O[C@@](O)(C(=O)C(=O)N3CCCC[C@H]3C(=O)O[C@H](/C(C)=C/[C@@H]3CC[C@H](Cl)[C@H](OC)C3)[C@H](C)[C@@H](O)CC1=O)[C@H](C)C[C@@H]2OC [Pimecrolimus] reads -0.0746
S-phase gammaH2AX median (Z-score), NOCC(=O)O [O-(Carboxymethyl)hydroxylamine hemihydrochloride] reads 0.035
S-phase gammaH2AX median (Z-score), CCOC(=O)C1=C[C@]2(CC)CCCN3CCc4c(n1c1ccccc41)[C@@H]32 [Vinpocetine] reads -0.0133

(next part)

SMILES | S-phase gammaH2AX median (Z-score)
N#C/C(=C\c1ccc(O)c(O)c1)C(=O)NCCCNC(=O)/C(C#N)=C/c1ccc(O)c(O)c1 [Tyrphostin AG 537] | 0.267
CN(CCOc1ccc(CC2SC(=O)NC2=O)cc1)c1ccccn1 (stereo not given) [Rosiglitazone (Avandia)] | -0.0978
Fc1cc(-c2cccc3ncc(-c4cnn(C5CCNCC5)c4)nc23)cc(F)c1CN1CCOCC1 | -0.0112
NCCCCNCCCN [Spermidine trihydrochloride] | 0.04
Nc1ncn([C@H]2C[C@H](O)[C@@H](CO)O2)c(=O)n1 [Decitabine] | -0.0367
O=C(Cc1ccc(-c2ccc(OCCN3CCOCC3)cc2)cn1)NCc1ccccc1 | -0.0274
CCOC(=O)[C@]12CC1/C(=N\O)c1ccccc1O2 (stereo not given in full) | -0.0641
CCN[C@H]1C[C@H](C)S(=O)(=O)c2sc(S(N)(=O)=O)cc21 [Dorzolamide HCL] | 0.0143
C[N+](C)(C)CCCCCNCC12CC3CC(CC(C3)C1)C2 | 0.0126
N[C@H](CO)C(=O)O [D-Serine] | -0.1
NC(Cc1cccc(-c2ccccc2CP(=O)(O)O)c1)C(=O)O (stereo not drawn) [Phenylbenzene-omega-phosphono-alpha-amino acid] | -0.0166
O=S(=O)(c1cccc2cnccc12)N1CCNCC1 | 0.113
CCOC(=O)C(C)(C)Oc1ccc(Cl)cc1 [Clofibrate] | -0.0155
c1cnc2c(c1)ccc1cccnc12 [1,10-Phenanthroline monohydrate] | 10.5
CC(C)NC[C@H](O)COc1ccc(CC(N)=O)cc1 [S(-)-Atenolol] | -0.0951
CO[C@@]1(NC(=O)CSCC#N)C(=O)N2C(C(=O)O)=C(CSc3nnnn3C)CS[C@@H]21 [Cefmetazole sodium] | 0.0913
COc1ccc2[nH]c(I)c(CCNC(C)=O)c2c1 [2-Iodomelatonin] | 0.0472
CCC(NC(C)C)C(O)c1ccc(O)c(O)c1 (stereo not given) [Isotharine mesylate] | 0.0346
C[C@H](NC(=O)Cc1cc(F)cc(F)c1)C(=O)N[C@H](C(=O)OC(C)(C)C)c1ccccc1 | 0.179
CN1CCc2cccc3c2[C@H]1Cc1ccc(O)c(O)c1-3 [Apomorphine hydrochloride hemihydrate] | -0.00194
CCCCCCCCCCCCCCCC(=O)NCCO [Palmitoylethanolamide] | 0.0922
CO[C@@H](C(=O)N1Cc2[nH]nc(NC(=O)c3ccc(N4CCN(C)CC4)cc3)c2C1)c1ccccc1 | -0.0553
CN1CCN(C2=Nc3cc(Cl)ccc3Nc3ccccc32)CC1 [Clozapine] | 0.033
O=C(O)c1ccccc1Nc1ccccc1 [N-Phenylanthranilic acid] | -0.0272
C=CC[C@H](N)C(=O)O [L-allylglycine] | -0.00388
Brc1ccc([C@H]2CN3CCSC3=N2)cc1 [S(-)-p-Bromotetramisole oxalate] | -0.0272
